Values quoted from earlier work, collected in patent US11261210B2, “Glycosylated antitumor ether lipids as novel cancer stem cell cytotoxic agents” (UNIVERSITY OF MANITOBA, priority 2012, dated 2022).
At least one structure is not confirmed: it was looked up by name or label, or the drawing left a doubt.

Details: cited from earlier work

CCCCCCCCCCCCCCCCOC[C@H](CO[C@@H]1O[C@H](CO)[C@@H](O)[C@H](O)[C@H]1N)OC [β-O-Gln, 1-O-hexadecyl-2-O-methyl-3-O-(2′-amino-2′-deoxy-β-D-glucopyranosyl)-sn-glycerol]
effect of cathepsin inhibitor pepstatin A on Gln-induced cell death: attenuated | effect of pan caspase inhibitor zVADFMK on Gln-induced cell death: no effect
